These are yes or no findings as the source states them, for the method shown. Binding seen in cells or lysates may run through a third protein. Some results given as binding are weak or reduced against the parent protein; the word gives no strength.

Here are results for 2 molecules from paper PMC9314386.

The experiment addresses T1, myosin phosphatase target subunit 1 (MYPT1) (rat (endogenous in A7R5)) (UniProt Q10728).
T1 sequence: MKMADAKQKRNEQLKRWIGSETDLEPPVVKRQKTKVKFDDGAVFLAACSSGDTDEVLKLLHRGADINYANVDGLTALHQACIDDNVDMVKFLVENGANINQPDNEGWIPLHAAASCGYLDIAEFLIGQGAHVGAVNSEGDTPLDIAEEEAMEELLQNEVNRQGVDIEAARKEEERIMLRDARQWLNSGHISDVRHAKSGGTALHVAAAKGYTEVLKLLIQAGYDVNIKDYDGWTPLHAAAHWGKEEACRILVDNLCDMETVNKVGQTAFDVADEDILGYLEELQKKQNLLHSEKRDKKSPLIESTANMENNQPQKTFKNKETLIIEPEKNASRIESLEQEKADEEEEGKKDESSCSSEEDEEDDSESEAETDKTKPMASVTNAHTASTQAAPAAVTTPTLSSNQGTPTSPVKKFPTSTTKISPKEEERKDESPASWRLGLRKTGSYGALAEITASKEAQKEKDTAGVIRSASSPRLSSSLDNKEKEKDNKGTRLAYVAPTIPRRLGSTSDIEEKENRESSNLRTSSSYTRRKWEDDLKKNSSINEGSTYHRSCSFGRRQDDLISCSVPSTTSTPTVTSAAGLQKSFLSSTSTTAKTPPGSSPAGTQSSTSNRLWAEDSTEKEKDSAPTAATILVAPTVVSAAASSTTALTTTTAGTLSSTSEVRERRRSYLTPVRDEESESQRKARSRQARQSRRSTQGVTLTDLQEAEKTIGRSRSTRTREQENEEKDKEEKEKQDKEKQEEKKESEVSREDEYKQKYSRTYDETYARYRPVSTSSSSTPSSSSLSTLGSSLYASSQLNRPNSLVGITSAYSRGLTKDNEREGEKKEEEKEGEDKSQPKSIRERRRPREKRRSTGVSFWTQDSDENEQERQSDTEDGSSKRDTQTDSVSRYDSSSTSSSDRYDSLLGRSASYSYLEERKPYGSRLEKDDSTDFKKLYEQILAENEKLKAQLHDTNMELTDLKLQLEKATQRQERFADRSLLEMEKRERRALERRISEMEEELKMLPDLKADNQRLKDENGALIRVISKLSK
Kind of experiment: co-IP; immunoprecipitation with an anti-MYPT1 antibody from lysates of A7R5 cells treated with MG132 (20 uM) and lotusine (0.5 uM, 24 h); immunoblot of the immunoprecipitate for ubiquitin, SIAH1 and SIAH2.

B1: SIAH1 E3 ligase (enzyme, UniProt Q920M9 1-282)
chain: MSRQTATALPTGTSKCPPSQRVPALTGTTASNNDLASLFECPVCFDYVLPPILQCQSGHLVCSNCRPKLTCCPTCRGPLGSIRNLAMEKVANSVLFPCKYASSGCEITLPHTEKAEHEELCEFRPYSCPCPGASCKWQGSLDAVMPHLMHQHKSITTLQGEDIVFLATDINLPGAVDWVMMQSCFGFHFMLVLEKQEKYDGHQQFFAIVQLIGTRKQAENFAYRLELNGHRRRLTWEATPRSIHEGIATAIMNSDCLVFDTSIAQLFAENGNLGINVTISMC
For B1, the binding entry is given as “binds”.

B2: SIAH2 E3 ligase (enzyme, UniProt Q8R4T2 1-325)
chain: MSRPSSTGPSANKPCSKQPPPPQTPHAPSPAAPPAAATISAAGPGSSAVPAAAAVISGPGAGGGAGPVSPQHHELTSLFECPVCFDYVLPPILQCQAGHLVCNQCRQKLSCCPTCRGALTPSIRNLAMEKVASAVLFPCKYATTGCSLTLHHTEKPEHEDICEYRPYSCPCPGASCKWQGSLEAVMSHLMHAHKSITTLQGEDIVFLATDINLPGAVDWVMMQSCFGHHFMLVLEKQEKYEGHQQFFAIVLLIGTRKQAENFAYRLELNGNRRRLTWEATPRSIHDGVAAAIMNSDCLVFDTAIAHLFADNGNLGINVTISTCCQ
For the molecule B2, the binding result is “binds”.
